Test results from PubChem BioAssay AID272 (DTP/NCI, 2004).
The list does not hold the whole screen: it is rich in T/C values a quarter to a half above the control, in often repeated tests (any T/C) and in doses without a T/C. Other doses and runs of a compound stand elsewhere. T/C is the treated group as % of the vehicle group. Some doses have a count of surviving animals in place of a T/C: the source holds a T/C of zero for them, seemingly a mark for toxic or unscored doses. Some doses without a T/C left all or most animals alive at the check, yet need not have been tolerated: survival well below the control is almost never listed, so the zero probably covers shortened survival too. Survivors were counted at the toxicity check, usually on the fifth day, unless a day is given; later deaths do not show. Schedules are NCI's codes, taken here to give the interval after Q, in days (D) or hours (H), and the number of doses after X. Some entries were tested several times; the results are listed from low to high. Where survival is the endpoint, this PubChem deposit counts one and a half times the control or more as active, and values a quarter to a half above the control carry no call in these data; other NCI protocols may use other cut-offs. Some T/C values carry the count of animals alive at the toxicity check (mostly the fifth day); without a count, all were alive then.

Tested on: Lewis lung carcinoma i.m., BDF1 mice, T/C %
Experiment: NCI In Vivo Anticancer Drug Screen. Data for tumor model Lewis Lung Carcinoma (intramuscular) in B6D2F1 (BDF1) mice
Summary of the method: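 Tumour-bearing mice were dosed with compound, and either their survival or their tumour size was measured. Results were expressed relative to vehicle-treated controls as T/C.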

[1] = T/C endpoint: median survival time, dose: 50.0 mg/kg/injection, schedule: Q01DX011 (ip), vehicle: steroid suspending solution, higher T/C = longer survival
[2] = T/C endpoint: median survival time, dose: 200.0 mg/kg/injection, schedule: Q01DX011 (ip), vehicle: saline, higher T/C = longer survival
[3] = T/C endpoint: median survival time, dose: 400.0 mg/kg/injection, schedule: Q01DX011 (ip), vehicle: saline, higher T/C = longer survival
[4] = T/C endpoint: median survival time, dose: 800.0 mg/kg/injection, schedule: Q01DX011 (ip), vehicle: saline, higher T/C = longer survival
[5] = T/C endpoint: median survival time, dose: 50.0 mg/kg/injection, schedule: Q01DX011 (ip), vehicle: saline, higher T/C = longer survival

`CC1CCC(NC(=O)N(CCCl)N=O)CC1` (centres undefined) was tested, and the T/C (T/C endpoint: median survival time, dose: 2.0 mg/kg/injection, schedule: Q01DX009 (ip), vehicle: saline + alcohol, higher T/C = longer survival) was 129 % of control, the survivor count (T/C endpoint: median survival time, dose: 4.0 mg/kg/injection, schedule: Q01DX015 (ip), vehicle: saline, higher T/C = longer survival) was 7 of 8 and the survivor count (T/C endpoint: median survival time, dose: 6.25 mg/kg/injection, schedule: Q01DX017 (ip), vehicle: saline, higher T/C = longer survival) was 9 of 10. For the same compound, the T/C (T/C endpoint: median survival time, dose: 6.25 mg/kg/injection, schedule: Q06HX012 (ip), vehicle: saline, higher T/C = longer survival) was 127 % of control, the T/C (T/C endpoint: median survival time, dose: 8.0 mg/kg/injection, schedule: Q01DX009 (ip), vehicle: saline + alcohol, higher T/C = longer survival) was 131 % of control and the T/C (T/C endpoint: median survival time, dose: 9.8 mg/kg/injection, schedule: Q01DX015 (ip), vehicle: saline, higher T/C = longer survival) was 139 % of control. For the same compound, the survivor count (T/C endpoint: median survival time, dose: 10.0 mg/kg/injection, schedule: Q01DX015 (ip), vehicle: saline, higher T/C = longer survival) was 8 of 8, the survivor count (T/C endpoint: median survival time, dose: 12.5 mg/kg/injection, schedule: Q01DX017 (ip), vehicle: saline, higher T/C = longer survival) was 3 of 10 and the survivor count (T/C endpoint: median survival time, dose: 16.0 mg/kg/injection, schedule: Q01DX009 (ip), vehicle: saline + alcohol, higher T/C = longer survival) was 10 of 10. The survivor count (T/C endpoint: median survival time, dose: 16.0 mg/kg/injection, schedule: Q01DX011 (ip), vehicle: saline with Tween-80, higher T/C = longer survival) was 0 of 10 and 7 of 10, the survivor count (T/C endpoint: median survival time, dose: 20.0 mg/kg/injection, schedule: Q01DX015 (ip), vehicle: saline, higher T/C = longer survival) was 8 of 8 and the T/C (T/C endpoint: median survival time, dose: 24.0 mg/kg/injection, schedule: Q14DX002 (ip), vehicle: saline, higher T/C = longer survival) was 134 % of control. The survivor count (T/C endpoint: median survival time, dose: 25.0 mg/kg/injection, schedule: Q01DX017 (ip), vehicle: saline, higher T/C = longer survival) was 0 of 10, the survivor count (T/C endpoint: median survival time, dose: 25.0 mg/kg/injection, schedule: Q06HX004 (ip), vehicle: saline, higher T/C = longer survival) was 0 of 10 and the survivor count (T/C endpoint: median survival time, dose: 25.0 mg/kg/injection, schedule: Q06HX012 (ip), vehicle: saline, higher T/C = longer survival) was 5 of 10. The survivor count (T/C endpoint: median survival time, dose: 32.0 mg/kg/injection, schedule: Q01DX011 (ip), vehicle: saline with Tween-80, higher T/C = longer survival) was 0 of 10 and 2 of 10, the T/C (T/C endpoint: median survival time, dose: 39.0 mg/kg/injection, schedule: Q01DX001 (sc), vehicle: Klucel (hydroxypropylcellulose) (HPC), higher T/C = longer survival) was 141 % of control [7 of 8 alive] and the survivor count (T/C endpoint: median survival time, dose: 50.0 mg/kg/injection, schedule: Q06HX004 (ip), vehicle: saline, higher T/C = longer survival) was 0 of 10. For the same compound, the survivor count (T/C endpoint: median survival time, dose: 50.0 mg/kg/injection, schedule: Q08DX003 (ip), vehicle: saline, higher T/C = longer survival) was 8 of 10, the survivor count (T/C endpoint: median survival time, dose: 56.0 mg/kg/injection, schedule: Q01DX001 (ip), vehicle: saline, higher T/C = longer survival) was 5 of 8 and the survivor count (T/C endpoint: median survival time, dose: 56.0 mg/kg/injection, schedule: Q14DX002 (ip), vehicle: saline, higher T/C = longer survival) was 5 of 8. The survivor count (T/C endpoint: median survival time, dose: 60.0 mg/kg/injection, schedule: Q07DX003 (ip), vehicle: saline, higher T/C = longer survival) was 8 of 8, the survivor count (T/C endpoint: median survival time, dose: 64.0 mg/kg/injection, schedule: Q01DX011 (ip), vehicle: saline with Tween-80, higher T/C = longer survival) was 0 of 10 and the survivor count (T/C endpoint: median survival time, dose: 65.0 mg/kg/injection, schedule: Q07DX003 (ip), vehicle: saline, higher T/C = longer survival) was 3 of 8. For the same compound, the survivor count (T/C endpoint: median survival time, dose: 70.0 mg/kg/injection, schedule: Q01DX001 (ip), vehicle: saline, higher T/C = longer survival) was 0 of 8, the survivor count (T/C endpoint: median survival time, dose: 70.0 mg/kg/injection, schedule: Q07DX003 (ip), vehicle: saline, higher T/C = longer survival) was 1 of 8 and the survivor count (T/C endpoint: median survival time, dose: 70.0 mg/kg/injection, schedule: Q14DX002 (ip), vehicle: saline, higher T/C = longer survival) was 1 of 8. For the same compound, the survivor count (T/C endpoint: median survival time, dose: 100.0 mg/kg/injection, schedule: Q01DX001 (ip), vehicle: saline, higher T/C = longer survival) was 3 of 10, the survivor count (T/C endpoint: median survival time, dose: 100.0 mg/kg/injection, schedule: Q08DX003 (ip), vehicle: saline, higher T/C = longer survival) was 0 of 10 and the survivor count (T/C endpoint: median survival time, dose: 128.0 mg/kg/injection, schedule: Q01DX011 (ip), vehicle: saline with Tween-80, higher T/C = longer survival) was 0 of 10. For the same compound, the survivor count (T/C endpoint: median survival time, dose: 256.0 mg/kg/injection, schedule: Q01DX011 (ip), vehicle: saline with Tween-80, higher T/C = longer survival) was 0 of 10.

`O=C1CN(CCN2CC(=O)NC(=O)C2)CC(=O)N1` was tested, and the survivor count (T/C endpoint: mean tumor weight, dose: 100.0 mg/kg/injection, schedule: Q01DX011 (ip), vehicle: steroid suspending solution, higher T/C = larger tumour) was 5 of 8, the T/C [1] was 127 % of control [7 of 8 alive] and the survivor count [1] was 6 of 8. The survivor count (T/C endpoint: median survival time, dose: 100.0 mg/kg/injection, schedule: Q01DX011 (ip), vehicle: steroid suspending solution, higher T/C = longer survival) was 0 of 8 and 5 of 8.

`O=C(CCl)Nc1ccc(C(=O)O)cc1` was tested, and the survivor count (T/C endpoint: median survival time, dose: 30.0 mg/kg/injection, schedule: Q01DX011 (ip), vehicle: saline with Tween-80, higher T/C = longer survival) was 3 of 8 and the survivor count (T/C endpoint: median survival time, dose: 60.0 mg/kg/injection, schedule: Q01DX011 (ip), vehicle: saline with Tween-80, higher T/C = longer survival) was 0 of 8.

For `Oc1ccc(I)c2cccnc12`, the survivor count (T/C endpoint: mean tumor weight (est.), dose: 200.0 mg/kg/injection, schedule: Q01DX011 (ip), vehicle: saline, higher T/C = larger tumour) was 3 of 8, the survivor count [2] was 3 of 8 and the survivor count [3] was 0 of 8. The survivor count [4] was 0 of 8.

In the case of `O=[N+]([O-])O.[Ga]`, the survivor count (T/C endpoint: mean tumor weight, dose: 50.0 mg/kg/injection, schedule: Q01DX011 (ip), vehicle: saline, higher T/C = larger tumour) is reported as 1 of 8, the survivor count [5] is reported as 1 of 8 and the survivor count (T/C endpoint: median survival time, dose: 100.0 mg/kg/injection, schedule: Q01DX011 (ip), vehicle: saline, higher T/C = longer survival) is reported as 0 of 8. The survivor count [2] was 0 of 8 and the survivor count [3] was 0 of 8.

For `CCN(CC)CCOC(=O)c1ccccc1N(c1ccccc1)c1ccccc1`, the survivor count (T/C endpoint: median survival time, dose: 125.0 mg/kg/injection, schedule: Q01DX011 (ip), vehicle: Klucel (hydroxypropylcellulose) (HPC), higher T/C = longer survival) was 6 of 8.

`COc1cccc(CC(C)[N+](=O)[O-])c1` (centres undefined) was tested, and the survivor count (T/C endpoint: median survival time, dose: 100.0 mg/kg/injection, schedule: Q01DX011 (ip), vehicle: other, higher T/C = longer survival) was 0 of 8, the survivor count (T/C endpoint: median survival time, dose: 200.0 mg/kg/injection, schedule: Q01DX011 (ip), vehicle: other, higher T/C = longer survival) was 0 of 8 and the survivor count (T/C endpoint: median survival time, dose: 400.0 mg/kg/injection, schedule: Q01DX011 (ip), vehicle: other, higher T/C = longer survival) was 0 of 8.

`COc1cc([C@@H]2c3cc4c(cc3[C@@H](OC3OC5COC(C)OC5C(O)C3O)[C@H]3COC(=O)[C@H]23)OCO4)cc(OC)c1O` (some centres undefined) was tested, and the survivor count (T/C endpoint: mean tumor weight (est.), dose: 10.0 mg/kg/injection, schedule: Q01DX011 (ip), vehicle: saline, higher T/C = larger tumour) was 2 of 8.

In the case of `C[C@]12CC[C@H]3[C@@H](CC[C@]4(O)C[C@@H](O)CC[C@]34C=O)[C@@]1(O)CC[C@@H]2C1=CC(=O)OC1`, the T/C (T/C endpoint: median survival time, dose: 25.0 mg/kg/injection, schedule: Q01DX011 (ip), vehicle: saline with Tween-80, higher T/C = longer survival) is reported as 128 % of control, the survivor count (T/C endpoint: median survival time, dose: 100.0 mg/kg/injection, schedule: Q01DX011 (ip), vehicle: saline with Tween-80, higher T/C = longer survival) is reported as 5 of 8 and the T/C (T/C endpoint: median survival time, dose: 200.0 mg/kg/injection, schedule: Q01DX011 (ip), vehicle: saline with Tween-80, higher T/C = longer survival) is reported as 130 % of control [6 of 8 alive].

For `CC(C)n1c2c([n+](C)c1/C=C/c1ccccc1)C(=O)c1ccccc1C2=O`, the survivor count (T/C endpoint: median survival time, dose: 1.0 mg/kg/injection, schedule: Q01DX011 (ip), vehicle: saline with Tween-80, higher T/C = longer survival) was 6 of 8, the survivor count (T/C endpoint: median survival time, dose: 2.0 mg/kg/injection, schedule: Q01DX011 (ip), vehicle: saline with Tween-80, higher T/C = longer survival) was 0 of 8 and the survivor count (T/C endpoint: median survival time, dose: 4.0 mg/kg/injection, schedule: Q01DX011 (ip), vehicle: saline with Tween-80, higher T/C = longer survival) was 0 of 8.

`COc1cc([C@@H]2c3cc4c(cc3C[C@H]3COC(=O)[C@@H]32)OCO4)cc(OC)c1OC` was tested, and the survivor count (T/C endpoint: mean tumor weight (est.), dose: 20.0 mg/kg/injection, schedule: Q01DX011 (ip), vehicle: saline, higher T/C = larger tumour) was 5 of 8, the survivor count (T/C endpoint: mean tumor weight, dose: 25.0 mg/kg/injection, schedule: Q01DX011 (ip), vehicle: saline, higher T/C = larger tumour) was 1 of 8 and the survivor count (T/C endpoint: median survival time, dose: 25.0 mg/kg/injection, schedule: Q01DX011 (ip), vehicle: saline, higher T/C = longer survival) was 1 of 8. For the same compound, the survivor count [5] was 0 of 8.

In the case of `CC1OC(=O)C(C2OC2C)=CC1O` (centres undefined), the survivor count [5] is reported as 0 of 8.

In the case of `Nc1nc(=O)n(C2OC(CO)C(O)C2O)cc1F` (centres undefined), the survivor count (T/C endpoint: median survival time, dose: 64.0 mg/kg/injection, schedule: Q01DX011 (ip), vehicle: saline, higher T/C = longer survival) is reported as 8 of 8 and the survivor count (T/C endpoint: median survival time, dose: 128.0 mg/kg/injection, schedule: Q01DX011 (ip), vehicle: saline, higher T/C = longer survival) is reported as 8 of 8.

For `COc1ccc(N=O)c(O)c1`, the survivor count [2] was 0 of 8.

In the case of `Cc1c2ccncc2c(C)c2c1[nH]c1ccccc12`, the survivor count (T/C endpoint: median survival time, dose: 12.5 mg/kg/injection, schedule: Q01DX011 (ip), vehicle: water, higher T/C = longer survival) is reported as 7 of 8.

`CC(C)[C@](O)(C(=O)OCC1=CC[N+]2([O-])CC[C@@H](O)[C@@H]12)[C@H](C)O` (some centres undefined) was tested, and the survivor count (T/C endpoint: mean tumor weight (est.), dose: 800.0 mg/kg/injection, schedule: Q01DX011 (ip), vehicle: saline, higher T/C = larger tumour) was 5 of 8, the survivor count [4] was 5 of 8 and the survivor count (T/C endpoint: median survival time, dose: 1600.0 mg/kg/injection, schedule: Q01DX011 (ip), vehicle: saline, higher T/C = longer survival) was 0 of 8.
